PubChem BioAssay AID1159584, Peter MacCallum Cancer Centre – 2016

Screen: 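Genes whose loss is lethal only together with E-cadherin loss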 (primary screen)
Cell system: human MCF10A breast epithelial cells, parental and CDH1-null
Reagent: siRNA against human genes
Detection: 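Cell viability by CellTiter-Glo ATP luminescence, each line scaled to the mean of mock wells across plates, then CDH1-null over parental ratio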
Direction: CDH1-null / parental viability ratio: higher = CDH1-null cells survive relatively better than parental; CDH1-null viability vs mock: higher = more viable CDH1-null cells; parental viability vs mock: higher = more viable parental cells
Here is an unselected part of about 18,000 reagents. Not given: the amount of reagent, the time to read-out.

CDH1-null / parental viability ratio | CDH1-null viability vs mock (fraction of mock) | parental viability vs mock (fraction of mock) | gene symbol
1.15 | 0.6 | 0.52 | SIKE1 (suppressor of IKBKE 1)
0.74 | 0.5 | 0.68 | AIP (AHR interacting HSP90 co-chaperone)
0.64 | 0.45 | 0.7 | GUCA1A (guanylate cyclase activator 1A)
1.11 | 0.8 | 0.72 | USP45 (ubiquitin specific peptidase 45)
0.98 | 0.92 | 0.94 | OR4N3P (olfactory receptor family 4 subfamily N member 3 pseudogene)
1.05 | 0.78 | 0.74 | YDJC (YdjC chitooligosaccharide deacetylase homolog)
0.85 | 0.7 | 0.82 | BOD1L1 (biorientation of chromosomes in cell division 1 like 1)
0.94 | 0.66 | 0.7 | TDRD5 (tudor domain containing 5)
1.13 | 0.94 | 0.83 | LRIT1 (leucine rich repeat, Ig-like and transmembrane domains 1)
1 | 1.02 | 1.02 | PLCB1 (phospholipase C beta 1)
0.87 | 0.6 | 0.69 | FARP2 (FERM, ARH/RhoGEF and pleckstrin domain protein 2)
0.95 | 0.75 | 0.79 | NOTCH2 (notch receptor 2)
0.97 | 0.76 | 0.78 | TMEM130 (transmembrane protein 130)
1.79 | 0.43 | 0.24 | SPANXA1
1.22 | 0.5 | 0.41 | CD52 (CD52 molecule)
1.34 | 0.51 | 0.38 | KIF11 (kinesin family member 11)
0.82 | 0.66 | 0.8 | ERBIN (erbb2 interacting protein)
0.61 | 0.45 | 0.74 | DACT2 (dishevelled binding antagonist of beta catenin 2)
1.36 | 1.06 | 0.78 | MESD (mesoderm development LRP chaperone)
0.9 | 0.45 | 0.5 | C4orf36 (chromosome 4 open reading frame 36)
0.93 | 0.78 | 0.84 | LGALS3 (galectin 3)
1.27 | 0.99 | 0.78 | OR11H1 (olfactory receptor family 11 subfamily H member 1)
0.84 | 0.66 | 0.79 | HLA-DRB1 (major histocompatibility complex, class II, DR beta 1)
0.85 | 0.82 | 0.96 | PLA2G4A (phospholipase A2 group IVA)
1.2 | 0.91 | 0.76 | C16orf86 (chromosome 16 open reading frame 86)
1.04 | 1.24 | 1.19 | OTC (ornithine transcarbamylase)
1.3 | 0.56 | 0.43 | PSMC5 (proteasome 26S subunit, ATPase 5)
0.96 | 1.02 | 1.06 | GKAP1 (G kinase anchoring protein 1)
0.91 | 0.75 | 0.82 | IL32 (interleukin 32)
0.98 | 0.48 | 0.49 | RBM3 (RNA binding motif protein 3)
0.84 | 0.61 | 0.73 | LINC01465 (long independently transcribed non-coding RNA 1465)
0.85 | 0.8 | 0.94 | ISOC1 (isochorismatase domain containing 1)
1.05 | 0.88 | 0.84 | SI (sucrase-isomaltase)
1.17 | 0.96 | 0.82 | ELANE (elastase, neutrophil expressed)
1.37 | 0.52 | 0.38 | PNKD (PNKD metallo-beta-lactamase domain containing)
1.18 | 0.91 | 0.77 | NUTM1 (NUT midline carcinoma family member 1)
0.97 | 0.97 | 1 | MBD4 (methyl-CpG binding domain 4, DNA glycosylase)
0.87 | 0.61 | 0.7 | MERTK (MER proto-oncogene, tyrosine kinase)
0.8 | 0.7 | 0.88 | AMOTL2 (angiomotin like 2)

6 of these entries, set out differently:
CDH1-null / parental viability ratio,CDH1-null viability vs mock (fraction of mock),parental viability vs mock (fraction of mock),gene symbol
1.79,0.43,0.24,SPANXA1
1.22,0.5,0.41,CD52 (CD52 molecule)
1.34,0.51,0.38,KIF11 (kinesin family member 11)
0.82,0.66,0.8,ERBIN (erbb2 interacting protein)
0.61,0.45,0.74,DACT2 (dishevelled binding antagonist of beta catenin 2)
1.36,1.06,0.78,MESD (mesoderm development LRP chaperone)

The list goes on.
CDH1-null / parental viability ratio | CDH1-null viability vs mock (fraction of mock) | parental viability vs mock (fraction of mock) | gene symbol
0.85 | 0.35 | 0.41 | EBNA1BP2 (EBNA1 binding protein 2)
1.1 | 0.69 | 0.63 | KRTAP10-9 (keratin associated protein 10-9)
0.79 | 0.3 | 0.38 | TMEM89 (transmembrane protein 89)
0.89 | 0.87 | 0.98 | BHLHE41 (basic helix-loop-helix family member e41)
1 | 1.05 | 1.05 | ZNF804A (zinc finger protein 804A)
1.18 | 0.92 | 0.78 | NPC1 (NPC intracellular cholesterol transporter 1)
0.87 | 0.52 | 0.6 | RIBC2 (RIB43A domain with coiled-coils 2)
1.16 | 1.04 | 0.9 | DDAH1 (dimethylarginine dimethylaminohydrolase 1)
1.23 | 0.86 | 0.7 | CAPNS1 (calpain small subunit 1)
1.27 | 1.09 | 0.86 | H2BC21 (H2B clustered histone 21)
1.16 | 0.52 | 0.45 | OR2H1 (olfactory receptor family 2 subfamily H member 1)
0.94 | 0.78 | 0.83 | PRKCSH (PRKCSH beta subunit of glucosidase II)
0.77 | 0.6 | 0.78 | CDC42EP4 (CDC42 effector protein 4)
1.21 | 1.39 | 1.15 | APBA2 (amyloid beta precursor protein binding family A member 2)
0.96 | 0.75 | 0.78 | PSMF1 (proteasome inhibitor subunit 1)
1.3 | 1.25 | 0.96 | KCTD3 (potassium channel tetramerization domain containing 3)
0.98 | 0.78 | 0.8 | RNF19A (ring finger protein 19A, RBR E3 ubiquitin protein ligase)
0.9 | 0.82 | 0.91 | ZNF430 (zinc finger protein 430)
1.31 | 0.38 | 0.29 | RPL19 (ribosomal protein L19)
0.83 | 0.71 | 0.86 | ITGB4 (integrin subunit beta 4)
1.16 | 0.88 | 0.76 | ANKRD17 (ankyrin repeat domain 17)
0.77 | 0.48 | 0.62 | AKR1C8 (aldo-keto reductase family 1 member C8)
0.8 | 0.56 | 0.7 | TPBG (trophoblast glycoprotein)
0.76 | 0.52 | 0.68 | FAM229B (family with sequence similarity 229 member B)
1 | 0.71 | 0.71 | SERBP1 (SERPINE1 mRNA binding protein 1)
0.84 | 0.81 | 0.96 | UGCG (UDP-glucose ceramide glucosyltransferase)
1.01 | 0.79 | 0.78 | ZNF473 (zinc finger protein 473)
1.29 | 1.1 | 0.85 | PRNP (prion protein (Kanno blood group))
0.8 | 0.72 | 0.9 | WDR17 (WD repeat domain 17)
